The chains behind the UniProt entries cited, without tags or fusion partners. Where a name states a change or a piece, a line headed by the entry shows the natural chain unless it says otherwise.
UniProt Q01638: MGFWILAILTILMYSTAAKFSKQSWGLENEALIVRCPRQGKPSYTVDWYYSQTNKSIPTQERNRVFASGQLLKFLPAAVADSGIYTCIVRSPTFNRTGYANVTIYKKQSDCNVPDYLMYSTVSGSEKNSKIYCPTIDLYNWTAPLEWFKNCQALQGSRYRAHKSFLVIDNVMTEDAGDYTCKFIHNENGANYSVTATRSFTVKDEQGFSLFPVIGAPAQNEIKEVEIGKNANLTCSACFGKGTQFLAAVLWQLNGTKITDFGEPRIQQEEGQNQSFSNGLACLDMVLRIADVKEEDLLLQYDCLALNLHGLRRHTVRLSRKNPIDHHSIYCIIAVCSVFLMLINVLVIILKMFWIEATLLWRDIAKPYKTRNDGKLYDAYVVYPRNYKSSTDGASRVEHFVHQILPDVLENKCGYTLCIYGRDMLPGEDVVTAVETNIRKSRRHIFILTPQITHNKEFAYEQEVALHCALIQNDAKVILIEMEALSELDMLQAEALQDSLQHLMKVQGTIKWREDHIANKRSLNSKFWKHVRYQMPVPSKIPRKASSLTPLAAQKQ

Several values for one entry are separate records, joined by “and”; a condition that tells them apart may be missing. Equal entries are not always repeated. Screen size: about 78,000 compounds; about 1,800 (2.3%) were called active. The inconclusive results got no clear call from the source; some entries with a clear call stand among them for comparison. Rule as the data show it: active = inhibition above about 30%; inconclusive = mostly about 10% to 28%; inactive = weaker than that.
Each molecule was assayed against Interleukin-1 receptor-like 1 (Homo sapiens) (UniProt Q01638) (assay: blocks human ST2 binding to IL-33, primary screen, biochemical, AlphaLISA (AID 1259354)). Conditions: AlphaLISA ST2-Fc/biotin-IL-33 interaction, 1 h; at 17 µM, active compounds read high.
In the case of `O=Cc1cn(CC(=O)NCc2ccco2)c2ccc(Br)cc12`, the inhibition is reported as inconclusive: 12%.
With `N#Cc1ccc2nc([C@H]3CCN(C(=O)C4CC4)C3)[nH]c2c1` the inhibition was inconclusive: 12%.
`COc1cc(OC)cc(-c2cc3nc(C)c(CCC(=O)Nc4cc(F)ccc4F)c(C)n3n2)c1` was tested, and the inhibition was “inactive”.
With `Cc1cc(C)c2nc(C)cc(Nc3ccc(N4CCOCC4)cc3)c2c1` the inhibition was inconclusive: 12%.
In the case of `CC(C)c1ccc(NC(=O)c2ccco2)cc1`, the inhibition is reported as “inactive”.
For `COc1ccc(OC2CCN(C3CCCC3)CC2)c(C(=O)NCc2nc(C)cc(C)n2)c1`, the inhibition was “inactive”.
In the case of `COc1ccc(Cl)cc1NC(=O)c1cc2c(=O)n3ccccc3nc2s1`, the inhibition is reported as active: 37%.
In the case of `Cc1cccc(-n2ncc3c(N4CCN(c5ccc(F)cc5)CC4)ncnc32)c1`, the inhibition is reported as inconclusive: 14%.
With `CN(Cc1csc(-c2cccs2)n1)C(=O)c1ncc[nH]1` the inhibition was “inactive”.
`COc1ccc(CCCN2C(=O)O[C@@H]3CN(c4nc(C)cc(C)n4)C[C@@H]32)cc1` was tested, and the inhibition was inconclusive: 12%.
In the case of `Cc1cnc2c(C(=O)NCCC3COc4ccccc4O3)cnn2c1` (stereo not given), the inhibition is reported as inconclusive: 14%.
With `CCOCCCN1CC(C(=O)NC2CCCCC2)CC1=O` (stereo not given) the inhibition was “inactive”.
With `Cc1ccc(C(=O)N2CCC(c3n[nH]c(=O)n3-c3ccccc3)CC2)s1` the inhibition was inconclusive: 25%.
With `CC(=O)Nc1ccc(NC(=O)c2cc(I)ccc2Cl)cc1` the inhibition was “inactive”.
In the case of `C=C(C)COc1cccc(C(=O)N(C)Cc2ncccc2C)c1`, the inhibition is reported as inconclusive: 11%.
In the case of `COc1cc(/C=C2\SC(=Nc3c(C)n(C)n(-c4ccccc4)c3=O)NC2=O)ccc1O`, the inhibition is reported as “inactive”.
For `CN(Cc1ncccc1C(=O)O)Cc1nc2ccccc2n1C`, the inhibition was “inactive”.
For `Cc1ccc(C(C)(c2ccc(N)cc2)c2ccc(N)cc2)cc1`, the inhibition was inconclusive: 18%.
`CN(C)c1ccc(/C=C(\C#N)c2nc(-c3ccc([N+](=O)[O-])cc3)cs2)cc1` was tested, and the inhibition was inconclusive: 18%.
With `O=[N+]([O-])c1ccc(O)c(C=Nc2ccc3oc(Cc4ccccc4)nc3c2)c1` the inhibition was active: 48%.
With `CCC(C)c1ccc(NC(=O)c2ccccc2[N+](=O)[O-])cc1` (stereo not given) the inhibition was “inactive”.
`Cc1ccc(C)c(N2CCN(Cc3cc4c(cc3[N+](=O)[O-])OCO4)CC2)c1` was tested, and the inhibition was active: 32%.
`CCc1cc(C(=O)N2CCOc3c(O)cc(-c4cccnc4)cc3C2)ccn1` was tested, and the inhibition was inconclusive: 17%.
`CC(CCc1ccco1)NC(=O)c1ccc(=O)n(C)c1` (stereo not given) was tested, and the inhibition was “inactive”.
In the case of `N#C/C(=C\c1cnn(-c2ccccc2)c1)c1nc2ccccc2[nH]1`, the inhibition is reported as inconclusive: 28%.
`CC(C(=O)N1CCCc2c1c(=O)oc1ccc(O)cc21)N1CCCCCC1` (stereo not given) was tested, and the inhibition was inconclusive: 11%.
For `Cc1ccc2[nH]c3c(c2c1)CCC1C3=NNC1c1ccco1` (stereo not given), the inhibition was active: 37%.
With `CCOC(=O)c1sc(NC(=O)Cn2c3ccccc3c(=O)c3ccccc32)nc1C` the inhibition was inconclusive: 20%.
`CCC(C)NC(=O)c1cc2c(=O)oc3ccccc3c2s1` (stereo not given) was tested, and the inhibition was “inactive”.
For `Cc1ncc2c(c1CNC(=O)/C=C/c1cccs1)CCN(C(=O)c1ccc3c(c1)OCCO3)C2`, the inhibition was inconclusive: 17%.
`C=CCc1cc(-c2nc[nH]c2-c2ccccc2)cc(OC)c1O` was tested, and the inhibition was inconclusive: 20%.
For `CNCC(=O)NCCc1c(OC)ccc2ccccc12`, the inhibition was inconclusive: 19%.
In the case of `COc1cc(/C=c2/sc3nc4ccccc4n3c2=O)ccc1OCc1nn[nH]n1`, the inhibition is reported as inconclusive: 13%.
`COc1ccccc1N1CCN(C(=O)c2ccc([N+](=O)[O-])cc2)CC1` was tested, and the inhibition was inconclusive: 13%.
`COCCN(Cc1cccs1)C(=O)C1=NN(C)C(=O)CC1` was tested, and the inhibition was inconclusive: 18%.
For `CCc1cnc(N2CCn3nc(C(=O)NCc4ccccn4)cc3C2)nc1`, the inhibition was “inactive”.
`O=C(Nc1cc(Cl)ccc1O)c1cc(-c2ccco2)on1` was tested, and the inhibition was inconclusive: 20%.
In the case of `CC(C)N1CC(NC(=O)c2cc(CN3CCOCC3)on2)CC1=O` (stereo not given), the inhibition is reported as inconclusive: 19%.
`CCOC(=O)CC1=C(C(=O)OCC)C(c2ccc(C)o2)C(C#N)=C(N)O1` (stereo not given) was tested, and the inhibition was “inactive”.
In the case of `CC1=C(C)CS(=Nc2ccccc2[N+](=O)[O-])N(S(=O)(=O)c2ccccc2)C1` (stereo not given), the inhibition is reported as inconclusive: 17%.
With `COc1ccccc1CNc1ccc2c(c1)ncn2C(C)(C)C` the inhibition was “inactive”.
In the case of `O=c1c2c(nc(SCc3ccccc3)n1-c1ccc(Cl)cc1)CCS2`, the inhibition is reported as “inactive”.
In the case of `CC1=C(C(=O)Nc2ccc(C)cn2)C(c2ccc(N(C)C)cc2)C2=C(CC(C)(C)CC2=O)N1` (stereo not given), the inhibition is reported as inconclusive: 13%.
With `Cc1ccc(S(=O)(=O)N2N=C(c3ccc(Br)cc3)CC2c2ccco2)cc1` (stereo not given) the inhibition was inconclusive: 17%.
With `O=C(Cc1ccc(F)cc1)N1CCN=C1SCc1ccccc1F` the inhibition was inconclusive: 13%.
With `O=C(C1CCCCC1)N1C[C@@H]2C[C@H](C1)c1ccc(-c3ccc(OC(F)(F)F)cc3)c(=O)n1C2` the inhibition was inconclusive: 12%.
In the case of `COc1ccc(C2C(C(=O)Nc3nc4ccccc4s3)=C(C)NC3=C2C(=O)CCC3)c(OC)c1` (stereo not given), the inhibition is reported as “inactive”.
In the case of `Oc1ccccc1C1=Nc2ccccc2N=C(c2ccccc2)C1`, the inhibition is reported as “inactive”.
For `COc1ccc(NC(=O)c2sc3nc4c(c(-c5cccs5)c3c2N)CCCC4)cc1`, the inhibition was “inactive”.
With `O=C(Nc1cccc(Cl)c1)[C@@H]1C[C@@H]1c1ccccc1` the inhibition was inconclusive: 15%.
With `COc1ccc(C2CC(c3ccco3)=Nc3ccccc3S2)cc1` (stereo not given) the inhibition was inconclusive: 25% and inconclusive: 20%.
For `COC(=O)c1ccc(C(=O)Nc2nc3c(ccc4ccccc43)s2)cc1`, the inhibition was inconclusive: 15%.
With `COc1ccccc1C1CCCN1C(=O)Cn1nnnc1CN1CCOCC1` (stereo not given) the inhibition was inconclusive: 13%.
With `CC1CCc2[nH]nc(C(=O)N3CCC4(CC3)C(=O)N(C)c3ccccc34)c2C1` (stereo not given) the inhibition was “inactive”.
With `O=C(NC1CCCN(CCc2ccccc2)C1)c1ccc(N2CCCC2=O)cc1` (stereo not given) the inhibition was inconclusive: 18%.
In the case of `Cc1cccc(C(=O)NCC(C)NC(=O)c2cccc(C)c2)c1` (stereo not given), the inhibition is reported as inconclusive: 17%.
`CC(C)OC(=O)c1cccc(N2C(=O)C3C4CCC(C4)C3C2=O)c1` (stereo not given) was tested, and the inhibition was “inactive”.
For `O=C(CCN1C(=O)c2ccccc2C1=O)Nc1ccccc1Cl`, the inhibition was inconclusive: 17%.
For `Cc1ccc(CCNC(=O)c2ccc3c(c2)ncn3C2CCCC2)cc1`, the inhibition was “inactive”.
For `Cc1cc(S(=O)(=O)N2CCCc3ccccc32)ccc1Cl`, the inhibition was inconclusive: 17%.

Source: PubChem BioAssay AID1259354 (Paczesny and Yang Labs, IUPUI and University of Michigan, 2018)
